The experiment has as its target FLAG-hMBD4 (SF-TAP-hMBD4), human full-length MBD4 (human) (UniProt O95243). In words: affinity purification with mass spectrometry; FLAG-MBD4 purified on anti-FLAG beads from MNase-digested nuclear extract of transfected 293T cells; SDS-PAGE, excised bands, Mascot search; control: empty vector.

Chains of the proteins cited; added tags and fusions are not shown.
UniProt O95243: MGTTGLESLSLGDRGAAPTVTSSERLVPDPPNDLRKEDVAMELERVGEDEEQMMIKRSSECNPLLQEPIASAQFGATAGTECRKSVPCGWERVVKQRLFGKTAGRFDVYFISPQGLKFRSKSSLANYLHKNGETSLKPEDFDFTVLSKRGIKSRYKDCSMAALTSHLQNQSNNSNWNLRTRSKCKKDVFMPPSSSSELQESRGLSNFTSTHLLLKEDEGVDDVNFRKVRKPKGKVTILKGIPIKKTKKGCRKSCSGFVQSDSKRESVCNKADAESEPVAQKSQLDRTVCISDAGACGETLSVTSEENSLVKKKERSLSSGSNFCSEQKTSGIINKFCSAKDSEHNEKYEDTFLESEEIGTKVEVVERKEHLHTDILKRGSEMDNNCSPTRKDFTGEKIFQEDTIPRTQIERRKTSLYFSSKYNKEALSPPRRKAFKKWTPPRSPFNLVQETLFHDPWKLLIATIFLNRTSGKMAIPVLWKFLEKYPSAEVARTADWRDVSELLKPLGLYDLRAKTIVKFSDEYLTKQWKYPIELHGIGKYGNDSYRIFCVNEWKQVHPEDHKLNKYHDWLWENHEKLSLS

Results are given in words; binding and its absence hold for the method and conditions named. Binding seen in cells or lysates may run through a third protein. A yes stands for co-enrichment or nearness to the bait. Other partners may have been found. Sequences can lack the tags named with a protein.

B1: UHRF1 (Ubiquitin-like, with PHD and RING finger domains 1), found by mass spectrometry in the FLAG-MBD4 purification (protein, UniProt Q96T88 1-793)
chain: MWIQVRTMDGRQTHTVDSLSRLTKVEELRRKIQELFHVEPGLQRLFYRGKQMEDGHTLFDYEVRLNDTIQLLVRQSLVLPHSTKERDSELSDTDSGCCLGQSESDKSSTHGEAAAETDSRPADEDMWDETELGLYKVNEYVDARDTNMGAWFEAQVVRVTRKAPSRDEPCSSTSRPALEEDVIYHVKYDDYPENGVVQMNSRDVRARARTIIKWQDLEVGQVVMLNYNPDNPKERGFWYDAEISRKRETRTARELYANVVLGDDSLNDCRIIFVDEVFKIERPGEGSPMVDNPMRRKSGPSCKHCKDDVNRLCRVCACHLCGGRQDPDKQLMCDECDMAFHIYCLDPPLSSVPSEDEWYCPECRNDASEVVLAGERLRESKKKAKMASATSSSQRDWGKGMACVGRTKECTIVPSNHYGPIPGIPVGTMWRFRVQVSESGVHRPHVAGIHGRSNDGAYSLVLAGGYEDDVDHGNFFTYTGSGGRDLSGNKRTAEQSCDQKLTNTNRALALNCFAPINDQEGAEAKDWRSGKPVRVVRNVKGGKNSKYAPAEGNRYDGIYKVVKYWPEKGKSGFLVWRYLLRRDDDEPGPWTKEGKDRIKKLGLTMQYPEGYLEALANREREKENSKREEEEQQEGGFASPRTGKGKWKRKSAGGGPSRAGSPRRTSKKTKVEPYSLTAQQSSLIREDKSNAKLWNEVLASLKDRPASGSPFQLFLSKVEETFQCICCQELVFRPITTVCQHNVCKDCLDRSFRAQVFSCPACRYDLGRSYAMQVNQPLQTVLNQLFPGYGNGR
In the case of B1, the binding entry is listed as “binds”.

Values taken from article PMC4964934.
